{"source": "PubChem BioAssay AID1508597 (Cure First, 2020)", "purpose": "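Genes whose silencing sensitises or protects ovarian cancer cells against rucaparib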 (primary screen)", "cells": "human ovarian carcinoma lines grown from tumours: OCI-P5x (papillary serous) and OCI-C5x (clear cell)", "knock-down reagent": "siRNA pool against human genes, 1.25 pmol siRNA per well", "duration": "72 h or 96 h, depending on the cell culture", "conditions": "rucaparib 20 µM (about IC30) or vehicle, present until read-out", "rucaparib or vehicle": "Vehicle", "cell line": "OCI-P5x (serous)", "read-out": "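ATP luminescence measured at 72 or 96 h according to the culture, then normalised and expressed as percent viability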", "scale": "viability, normalised: higher = more viable cells remaining", "hit rule": "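a well counts as a hit if its normalised viability is under 80 percent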", "calls": "active = viability under 80%; inactive = viability 80% or more", "note": "Shown is a random part of the about 2,100 reagents, in one setting of the screen. 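Calls flag viability under 80% in either arm, not effects specific to rucaparib; the reference for percent is not stated.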 Not given: the 100% reference."}
{"gene symbol":"PLCB1","technical replicate":"1","viability, normalised (%)":59.8,"activity call":"active"}
{"gene symbol":"PLCB1","technical replicate":"2","viability, normalised (%)":61.2,"activity call":"active"}
{"gene symbol":"PLCB1","technical replicate":"3","viability, normalised (%)":70.6,"activity call":"active"}
{"gene symbol":"EPC2","technical replicate":"1","viability, normalised (%)":66.1,"activity call":"active"}
{"gene symbol":"EPC2","technical replicate":"2","viability, normalised (%)":73.7,"activity call":"active"}
{"gene symbol":"EPC2","technical replicate":"3","viability, normalised (%)":79.6,"activity call":"active"}
{"gene symbol":"SPHK1","technical replicate":"1","viability, normalised (%)":64.6,"activity call":"active"}
{"gene symbol":"SPHK1","technical replicate":"2","viability, normalised (%)":55.9,"activity call":"active"}
{"gene symbol":"SPHK1","technical replicate":"3","viability, normalised (%)":66.7,"activity call":"active"}

Reprinted from above (3 entries):
{"gene symbol":"EPC2","technical replicate":"1","viability, normalised (%)":66.1,"activity call":"active"}
{"gene symbol":"EPC2","technical replicate":"2","viability, normalised (%)":73.7,"activity call":"active"}
{"gene symbol":"EPC2","technical replicate":"3","viability, normalised (%)":79.6,"activity call":"active"}

The list goes on:
{"gene symbol":"YBX1","technical replicate":"1","viability, normalised (%)":70.2,"activity call":"active"}
{"gene symbol":"YBX1","technical replicate":"2","viability, normalised (%)":66.8,"activity call":"active"}
{"gene symbol":"YBX1","technical replicate":"3","viability, normalised (%)":66.9,"activity call":"active"}
{"gene symbol":"APPL1","technical replicate":"1","viability, normalised (%)":67.7,"activity call":"active"}
{"gene symbol":"APPL1","technical replicate":"2","viability, normalised (%)":63.7,"activity call":"active"}
{"gene symbol":"APPL1","technical replicate":"3","viability, normalised (%)":76.7,"activity call":"active"}
{"gene symbol":"TSSK1A","technical replicate":"1","viability, normalised (%)":92.3,"activity call":"inactive"}
{"gene symbol":"TSSK1A","technical replicate":"2","viability, normalised (%)":94.5,"activity call":"inactive"}
{"gene symbol":"TSSK1A","technical replicate":"3","viability, normalised (%)":89.5,"activity call":"inactive"}
{"gene symbol":"SMN2","technical replicate":"1","viability, normalised (%)":44,"activity call":"active"}
{"gene symbol":"SMN2","technical replicate":"2","viability, normalised (%)":45.9,"activity call":"active"}
{"gene symbol":"SMN2","technical replicate":"3","viability, normalised (%)":101,"activity call":"inactive"}
